The test system of data set [1] is Immunoglobulin E (IgE). Kind of data set: filter binding. To be noted: purified native protein, protein details: Abcam, single-stranded DNA.
Data set [2] deals with c-Met (HGFR), endogenous on H1838 cells (Homo sapiens) (UniProt P08581). The experiment in a line: pull-down. As to conditions: 5'-hexylamine coupled Sulfo-SBED (phenyl azide, biotin); protein on the cell surface; label: biotin; single-stranded DNA; variant of trCLN3.

Construct, isoform or probe ends are uncertain for at least one entry. For part of these data: Where cells or extracts were used, other partners may take part.

“GGGGCACGTTTATCCGTCCCTCCTAGTGGCGTGCCCC [ABAL-D17.4]”: the binding result in data set [1] (5'-hexylamine coupled Sulfo-SBED (phenyl azide, biotin), affinity not altered vs unfunctionalized D17.4, high UV cross-linking, label: biotin, variant of D17.4) is listed as “binds”. Take “GGGGCACGTTTATCCGTCCCTCCTAGTGGCGTGCCCC [D17.4]”: in data set [1], the binding result is recorded as “binds”. As to “TGGATGGTAGCTCGGTCGGGGTGGGTGGGTTGGCAAGTCT [ABAL-trCLN3]”, the binding result in data set [2] is “binds”.

Values taken from US20170059576.
